According to article PMC7352350:
No constants are given. Whether binding was seen depends on the method and setting. Tags and fused reporters may be left off the sequences shown. Blank lines part the entries; values can stand above or below the binder they belong to.

Key:
[1] = target: proMMP-9 purified from THP-1 cells (human (endogenous in THP-1)) (UniProt P14780); experiment: far-Western, overlay or dot blot; slot blot, competition: pMMP-9 on the membrane, 0.29 uM Ht-SG with or without 0.87 uM His-tag peptide; detected with antibodies against SG; both purified
[2] = target: T1, FnII peptide 43 (human) (UniProt P14780); experiment: peptide or protein array; 20-mer walks of the MMP-9 FnII module and HPX domain on cellulose, two-residue shift; 10 uL of 1 ng/uL Ht-SG in 10 mL blocking buffer, 1-4 h, room temperature; antibodies against SG; both purified
T1 sequence (peptide): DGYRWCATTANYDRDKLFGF

[3] = target: T2, FnII peptide 41 (human) (UniProt P14780); experiment: as above
T2 sequence (peptide): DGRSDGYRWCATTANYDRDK

[4] = target: T3, FnII peptide 57 (human) (UniProt P14780); experiment: as above
T3 sequence (peptide): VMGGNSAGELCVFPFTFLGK

[5] = target: T4, FnII peptide 45 (human) (UniProt P14780); experiment: as above
T4 sequence (peptide): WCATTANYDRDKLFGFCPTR

[6] = target: T5, HPX peptide 15 (human) (UniProt P14780); experiment: as above
T5 sequence (peptide): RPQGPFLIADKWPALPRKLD

[7] = target: T6, HPX peptide 16 (human) (UniProt P14780); experiment: as above
T6 sequence (peptide): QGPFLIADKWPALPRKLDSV

[8] = target: T7, HPX peptide 36 (human) (UniProt P14780); experiment: as above
T7 sequence (peptide): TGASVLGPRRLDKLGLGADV

[9] = target: T8, FnII peptide 71 (human) (UniProt P14780); experiment: as above
T8 sequence (peptide): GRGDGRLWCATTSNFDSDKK

[10] = target: T9, FnII peptide 46 (human) (UniProt P14780); experiment: as above
T9 sequence (peptide): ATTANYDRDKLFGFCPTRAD

[11] = target: T10, HPX peptide 57 (human) (UniProt P14780); experiment: as above
T10 sequence (peptide): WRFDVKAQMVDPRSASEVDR

[12] = target: T11, HPX peptide 82 (human) (UniProt P14780); experiment: as above
T11 sequence (peptide): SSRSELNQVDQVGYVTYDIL

[13] = target: T12, HPX peptide 78 (human) (UniProt P14780); experiment: as above
T12 sequence (peptide): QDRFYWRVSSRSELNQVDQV

[14] = target: T13, FnII peptide 42 (human) (UniProt P14780); experiment: as above
T13 sequence (peptide): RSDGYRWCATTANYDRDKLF

[15] = target: T14, HPX peptide 17 (human) (UniProt P14780); experiment: as above
T14 sequence (peptide): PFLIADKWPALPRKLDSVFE

[16] = target: T15, FnII peptide 49 (human) (UniProt P14780); experiment: as above
T15 sequence (peptide): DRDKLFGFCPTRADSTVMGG

[17] = target: T16, HPX peptide 53 (human) (UniProt P14780); experiment: as above
T16 sequence (peptide): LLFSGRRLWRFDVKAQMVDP

[18] = target: T17, FnII peptide 22 with Y277 mutated (human) (UniProt P14780); experiment: peptide or protein array; mutated FnII and HPX 20-mer peptides on cellulose, incubated with Ht-SG; antibodies against SG; both purified
T17 sequence (peptide): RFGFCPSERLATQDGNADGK

[19] = target: T18, HPX peptide 41 with R618 mutated to alanine (human) (UniProt P14780); experiment: as above
T18 sequence (peptide): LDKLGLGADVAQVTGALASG

[20] = target: T19, HPX peptide 85 with I701 mutated (human) (UniProt P14780); experiment: as above
T19 sequence (peptide): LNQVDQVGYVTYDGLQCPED

[21] = target: T20, HPX peptide 69 with F665 mutated (human) (UniProt P14780); experiment: as above
T20 sequence (peptide): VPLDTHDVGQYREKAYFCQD

[22] = target: T21, FnII peptide 22 with E274 mutated (human) (UniProt P14780); experiment: as above
T21 sequence (peptide): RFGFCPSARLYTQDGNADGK

[23] = target: T22, HPX peptide 69 with Y667 mutated (human) (UniProt P14780); experiment: as above
T22 sequence (peptide): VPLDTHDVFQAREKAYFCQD

[24] = target: T23, FnII peptide 35 with R307 mutated (human) (UniProt P14780); experiment: as above
T23 sequence (peptide): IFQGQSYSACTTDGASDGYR

[25] = target: T24, HPX peptide 37 with D609 mutated (human) (UniProt P14780); experiment: as above
T24 sequence (peptide): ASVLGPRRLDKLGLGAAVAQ

[26] = target: T25, HPX peptide 85 with D700 mutated (human) (UniProt P14780); experiment: as above
T25 sequence (peptide): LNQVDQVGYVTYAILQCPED

B1: His-tag peptide (peptide)
peptide: MGSSHHHHHHSSGLVPRGSHMGSHM
- binding [1]: no binding (tested: 0.87 uM His-tag peptide)

- binding [2]: no binding
- binding [3]: no binding
- binding [4]: no binding
- binding [5]: no binding
- binding [6]: no binding
- binding [7]: no binding
- binding [8]: no binding
- binding [9]: no binding
- binding [10]: no binding
- binding [11]: no binding
- binding [12]: no binding
- binding [13]: no binding
- binding [14]: no binding
- binding [15]: no binding
- binding [16]: no binding
- binding [17]: no binding
- binding [18]: no binding
- binding [19]: no binding
- binding [20]: no binding
- binding [21]: no binding
- binding [22]: no binding
- binding [23]: no binding
- binding [24]: no binding
- binding [25]: no binding
- binding [26]: no binding
B2: recombinant human His-tagged serglycin (protein, UniProt P10124 28-158)
chain: YPTRRARYQWVRCNPDSNSANCLEEKGPMFELLPGESNKIPRLRTDLFPKTRIQDLNRIFPLSEDYSGSGFGSGSGSGSGSGSGFLTEMEQDYQLVDESDAFHDNLRSLDRNLPSDSQDLGQHGLEEDFML
